Data on 4 molecules can be found in paper PMC11574253.

Sequences of proteins named here, by UniProt entry; tags and fusion partners are left off.
UniProt P49674: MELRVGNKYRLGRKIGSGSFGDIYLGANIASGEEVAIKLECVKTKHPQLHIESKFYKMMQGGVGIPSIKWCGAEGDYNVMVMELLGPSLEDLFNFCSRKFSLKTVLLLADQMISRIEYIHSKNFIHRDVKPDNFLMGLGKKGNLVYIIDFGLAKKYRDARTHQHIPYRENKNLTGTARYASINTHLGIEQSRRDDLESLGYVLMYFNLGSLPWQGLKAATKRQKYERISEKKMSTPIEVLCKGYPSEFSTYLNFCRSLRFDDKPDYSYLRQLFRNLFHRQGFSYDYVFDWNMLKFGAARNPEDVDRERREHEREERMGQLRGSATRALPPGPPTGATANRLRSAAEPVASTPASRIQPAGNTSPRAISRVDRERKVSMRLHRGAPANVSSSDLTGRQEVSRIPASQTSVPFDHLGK

Numbering of substitutions follows the chain as printed. These are yes or no findings as the source states them, for the method shown. Binding seen in cells or lysates may run through a third protein. Some results given as binding are weak or reduced against the parent protein; the word gives no strength. Tags and fused reporters may be left off the sequences shown.

Assay [1] concerns the target T1, Flag-tagged human DVL3 (Dishevelled 3), wild type (human) (UniProt Q92997).
T1 sequence: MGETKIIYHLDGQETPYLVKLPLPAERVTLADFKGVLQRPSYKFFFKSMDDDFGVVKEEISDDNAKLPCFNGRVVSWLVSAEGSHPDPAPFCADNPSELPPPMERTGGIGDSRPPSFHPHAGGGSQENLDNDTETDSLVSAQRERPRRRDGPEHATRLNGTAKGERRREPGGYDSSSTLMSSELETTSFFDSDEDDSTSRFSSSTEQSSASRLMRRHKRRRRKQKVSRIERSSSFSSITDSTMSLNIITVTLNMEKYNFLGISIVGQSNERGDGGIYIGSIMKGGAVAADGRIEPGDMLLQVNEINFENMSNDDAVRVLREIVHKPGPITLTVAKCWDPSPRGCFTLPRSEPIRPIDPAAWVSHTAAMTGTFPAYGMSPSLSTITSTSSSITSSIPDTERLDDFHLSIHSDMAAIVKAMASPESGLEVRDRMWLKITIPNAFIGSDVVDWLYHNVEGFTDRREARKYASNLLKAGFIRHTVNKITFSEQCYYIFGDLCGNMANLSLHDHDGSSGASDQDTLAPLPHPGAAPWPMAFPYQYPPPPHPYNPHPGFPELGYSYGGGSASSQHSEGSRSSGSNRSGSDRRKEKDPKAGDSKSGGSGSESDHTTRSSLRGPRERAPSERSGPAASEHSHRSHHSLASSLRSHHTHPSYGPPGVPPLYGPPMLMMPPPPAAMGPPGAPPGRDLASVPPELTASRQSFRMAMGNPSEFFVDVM
Nature of the assay: co-IP; endogenous CK1ε with overexpressed DVL3 in HEK293 cells, without or with co-expressed TTLL11.

The target in assay [2] is T1, Flag-tagged human DVL3 (Dishevelled 3), wild type (human). Nature of the assay: co-IP; Flag-DVL3 variants co-expressed with EYFP-tagged CCP1, CCP5 or CCP6 in HEK293T; IP anti-Flag (DVL3) with WB GFP, and IP anti-GFP (CCPs) with WB Flag.
Assay [3] addresses T2, Flag-DVL3 E710A/D714A (glutamylation-defective) (human) (UniProt Q92997).
T2 sequence: T1 sequence with E710A, D714A
The assay is described as above.

On to “casein kinase 1 ε (CK1ε), endogenous (from UniProt P49674 1-416) (enzyme)”, for which the binding result in assay [1] is on record as “binds”.

B1: EYFP-tagged CCP6 (enzyme, UniProt Q09LZ8 1-540)
chain: MAERSQTAPEAGNDTGNEDAIGGNVNKYIVLPNGYSGQPKKGHLTFDACFESGNLGRVEQVSDFEYDLFIRPDTCNPRFRVWFNFTVENVKELQRVIFNIVNFSKTKSLYRDGMAPMVKSTSRPKWQRLPPKNVYYYRCPDHRKNYVMSFAFCFDREDDIYQFAYCYPYTYTRFQHYLDSLQKKNMDYFFREQLGQSVQQRQLDLLTITSPENLREGSEKKVIFITGRVHPGETPSSFVCQGIIDFLVSQHPIARVLREHLVFKIAPMLNPDGVYLGNYRCSLMGFDLNRHWLDPSPWAHPTLHGVKQLIIKMYNDPKTSLEFYIDIHAHSTMMNGFMYGNIFEDEERFQRQSIFPKLLCQNAEDFSYTSTSFNRDAVKAGTGRRFLGGLLDHSSYCYTLEVSFYSYIIGGTTAAVPYTEEAYMKLGRNVARTFLDYYRLNSLVEKIAVPMPRLRSKEERRLGWEHPSCLRAEQPLEVLGIPMCSGKALNEHLGNDIQWHLDCGSSTLPLGLISCSPSSSASWNDMAMSNSILLPDHSFH
On to B1, for which the binding entry in assay [2] and in assay [3] was “binds” throughout.

B2: EYFP-tagged CCP5 (enzyme, UniProt Q09M02 1-886)
chain: MELRCGGLLFSSRFDSGNLAHVEKVETVSSDGEGVGGVATAPASGSAASPDYEFNVWTRPDCAETEYENGNRSWFYFSVRGGTPGKLIKINIMNMNKQSKLYSQGMAPFVRTLPSRPRWERIRERPTFEMTETQFVLSFVHRFVEGRGATTFFAFCYPFSYSDCQDLLSQLDQRFSENYSTHSSPLDSIYYHRELLCYSLDGLRVDLLTITSCHGLRDDREPRLEQLFPDLGTPRPFRFTGKRIFFLSSRVHPGETPSSFVFNGFLDFILRPDDPRAQTLRRLFVFKLIPMLNPDGVVRGHYRTDSRGVNLNRQYLKPDAVLHPAIYGAKAVLLYHHVHSRLNAKSPTNQQPTLHLPPEAPLSDLEKANNLHNEAHLGQSPDGENPATWPETEPAEEKTDPVWLMPQPIPELEEPAPDTIPPKESGVAYYVDLHGHASKRGCFMYGNSFSDESTQVENMLYPKLISLNSAHFDFQGCNFSEKNMYARDRRDGQSKEGSGRVAIYKASGIIHSYTLECNYNTGRSVNSIPAACHDNGRASPPPPPAFPSRYTVELFEQVGRAMAIAALDMAECNPWPRIVLSEHSSLTNLRAWMLRHVRNSRGLTSAGNMGASKKRGARTPPKSNNSLPVSCSENALSRVRSFSTGTSTGGSSSSQQNSPQMKNSPSFPFHGSRTAGLPGLGSSTQKVSHRVLGPVREPRCSDRRRRQQPLNHRSTTSSLAPSPTLASSGPTSSRNMGSCLLPNSLSLSGSSCSFSSSGDKPEAVMVIGKSLLGAGARIPCIRTRLQARPRLGRSSPPTRRGMRGSSPTSPIPQTRESSELEPGPHSATPGLPQAGPPRPRSAPAFSPISCTLSDSPSRICYSRGLLNQCEVCFVPKSPPLTISPRV
With B2, the binding result in assay [2] and in assay [3] was “binds” in each case.

B3: EYFP-tagged CCP1 (enzyme, UniProt Q641K1 1-1218)
chain: MSKLKVVGEKSLTNSSRVVGLLAQLEKINTDSTESDTARYVTSKILHLAQSQEKTRREMTTKGSTGMEVLLSTLENTKDLQTVLNILSILIELVSSGGGRRASFLVAKGGSQILLQLLMNASKDSPPHEEVMVQTHSILAKIGPKDKKFGVKARVNGALTVTLNLVKQHFQNYRLVLPCLQLLRVYSTNSVNSVSLGKNGVVELMFKIIGPFSKKNSGLMKVALDTLAALLKSKTNARRAVDRGYVQVLLTIYVDWHRHDNRHRNMLIRKGILQSLKSVTNIKLGRKAFIDANGMKILYNTSQECLAVRTLDPLVNTSSLIMRKCFPKNRLPLPTIKSSFHFQLPIIPVTGPVAQLYSLPPEVDDVVDESDDNDDIDLEVENELENEDDLDQSFKNDDIETDINKLRPQQVPGRTIEELKMYEHLFPELVDDFQDYELISKEPKPFVFEGKARGPIVVPTAGEEVPGNSGSVKKGVVMKERASPKGEEAKEDPKGHDRTLPQQLGGQSRVAPSAHSFNNDLVKALDRITLQNVPSQVASGLNAGMRKDFGLPLTVLSCTKACPHVAKCGSTLFEGRTVHLGKLCCTGVETEDDEDTESHSSTEQAPSVEASDGPTLHDPDLYIEIVKNTKSVPEYSEVAYPDYFGHIPPPFKEPILERPYGVQRTKIAQDIERLIHQNDIIDRVVYDLDNPTYTTPEEGDTLKFNSKFESGNLRKVIQIRKSEYDLILNSDINSNHYHQWFYFEVSGMRPGVAYRFNIINCEKSNSQFNYGMQPLMYSVQEALNARPWWIRMGTDICYYKNHFSRSSVAAGGQKGKSYYTITFTVNFPHKDDVCYFAYHYPYTYSTLQMHLQKLESAHNPQQIYFRKDVLCETLSGNICPLVTITAMPESNYYEHICQFRTRPYIFLSARVHPGETNASWVMKGTLEYLMSNSPTAQSLRESYIFKIVPMLNPDGVINGNHRCSLSGEDLNRQWQSPNPELHPTIYHAKGLLQYLAAVKRLPLVYCDYHGHSRKKNVFMYGCSIKETVWHTHDNSASCDIVEDMGYRTLPKILSHIAPAFCMSSCSFVVEKSKESTARVVVWREIGVQRSYTMESTLCGCDQGRYKGLQIGTRELEEMGAKFCVGLLRLKRLTSSLEYNLPSNLLDFENDLIESSCKVTSPTTYVLDEDEPRFLEEVDYSAESNDELDVELAENTGDYEPSAQEEALSDSEVSRTHLI
As to B3, the binding entry in assay [2] and in assay [3] was “binds” throughout.
